We go through four molecules from publication PMC4414150, “Zfra activates memory Hyal-2+ CD3− CD19− spleen cells to block cancer growth, stemness, and metastasis in vivo” (Oncotarget, 2015).

Results are given in words; binding and its absence hold for the method and conditions named. For some assays here: In cells and extracts the contact can be indirect. Some results given as binding are weak or reduced against the parent protein; the word gives no strength.

Experiment [1] deals with Zfra1–15. The experiment can be described thus: SDS-PAGE of the incubated peptide (ladder of polymers); peptides alone (2 mM in 100 μl PBS) or mixed together, room temperature, 24 hr (legend; the text says sterile MilliQ water, 48 hr); non-reducing and reducing gels; less polymerization in MilliQ water; both purified.
The target of experiment [2] is T1, Zfra16–31.
T1 construct: Zfra, residues 16-31; also called Zfra peptide of amino acid #16–31; source: synthetic peptide (manual synthesis, Genemed Synthesis)
T1 peptide: FRAHTQKNAATPFLAN
The experiment can be described thus: SDS-PAGE of the incubated peptide (ladder of polymers); peptide 2 mM in PBS, room temperature, 24 hr; much less effective in water; both purified.

In experiment [3] the target is T1, Zfra16–31. The experiment can be described thus: SDS-PAGE of the incubated peptide (ladder of polymers); peptides alone (2 mM in 100 μl PBS) or mixed together, room temperature, 24 hr (legend; the text says sterile MilliQ water, 48 hr); non-reducing and reducing gels; less polymerization in MilliQ water; both purified.
For experiment [4], the target named is T2, Zfra1–31 (zinc finger-like protein that regulates apoptosis), synthetic full-length peptide.
T2 sequence (peptide): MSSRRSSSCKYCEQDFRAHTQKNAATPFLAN
The experiment can be described thus: co-sedimentation; Zfra1–31 (100 μM) added to whole lysates of L929 fibroblasts treated with or without UV; room temperature 30 min; centrifugation at 13,000 rpm for 15 min; precipitates analysed by Western blotting; only the target purified.

Experiment [5] has the same target. The experiment can be described thus: SDS-PAGE of the incubated peptide (ladder of polymers); Zfra1–31 2 mM in degassed PBS, room temperature, 16–24 hr; reducing SDS-PAGE, Coomassie blue and silver stain; both purified.

B1: Zfra1–15 (peptide)
peptide: MSSRRSSSCKYCEQD
notes: Zfra, residues 1-15; also called Zfra peptide of amino acid #1–15; source: synthetic peptide (manual synthesis, Genemed Synthesis)
Turning to B1, the binding entry in experiment [1] was “binds weakly”.

B2: Zfra16–31 (peptide)
peptide: FRAHTQKNAATPFLAN
For B2, the binding entry in experiment [2] and in experiment [3] was “binds weakly” in each case.

B3: endogenous Hyal-2 (hyaluronidase Hyal-2) of L929 fibroblasts (protein, UniProt O35632 21-448)
chain: GELKPTAPPIFTGRPFVVAWNVPTQECAPRHKVPLDLRAFDVKATPNEGFFNQNITTFYYDRLGLYPRFDAAGTSVHGGVPQNGSLCAHLPMLKESVERYIQTQEPGGLAVIDWEEWRPVWVRNWQEKDVYRQSSRQLVASRHPDWPSDRVMKQAQYEFEFAARQFMLNTLRYVKAVRPQHLWGFYLFPDCYNHDYVQNWESYTGRCPDVEVARNDQLAWLWAESTALFPSVYLDETLASSVHSRNFVSFRVREALRVAHTHHANHALPVYVFTRPTYTRGLTGLSQVDLISTIGESAALGSAGVIFWGDSEDASSMETCQYLKNYLTQLLVPYIVNVSWATQYCSWTQCHGHGRCVRRNPSANTFLHLNASSFRLVPGHTPSEPQLRPEGQLSEADLNYLQKHFRCQCYLGWGGEQCQRNYKGAAGN
With B3, the binding entry in experiment [4] is reported as “binds”.

B4: Zfra1–31 (zinc finger-like protein that regulates apoptosis), synthetic full-length peptide (peptide)
peptide: T2 sequence (peptide)
Regarding B4, the binding result in experiment [5] is reported as “binds”.
